± gives the standard deviation of the averaged measurements. The list shows a part of the results.

Sequences of proteins named here, by UniProt entry; tags and fusion partners are left off. A change or cut given only in a name is not applied to a line headed by its entry.
UniProt P13667: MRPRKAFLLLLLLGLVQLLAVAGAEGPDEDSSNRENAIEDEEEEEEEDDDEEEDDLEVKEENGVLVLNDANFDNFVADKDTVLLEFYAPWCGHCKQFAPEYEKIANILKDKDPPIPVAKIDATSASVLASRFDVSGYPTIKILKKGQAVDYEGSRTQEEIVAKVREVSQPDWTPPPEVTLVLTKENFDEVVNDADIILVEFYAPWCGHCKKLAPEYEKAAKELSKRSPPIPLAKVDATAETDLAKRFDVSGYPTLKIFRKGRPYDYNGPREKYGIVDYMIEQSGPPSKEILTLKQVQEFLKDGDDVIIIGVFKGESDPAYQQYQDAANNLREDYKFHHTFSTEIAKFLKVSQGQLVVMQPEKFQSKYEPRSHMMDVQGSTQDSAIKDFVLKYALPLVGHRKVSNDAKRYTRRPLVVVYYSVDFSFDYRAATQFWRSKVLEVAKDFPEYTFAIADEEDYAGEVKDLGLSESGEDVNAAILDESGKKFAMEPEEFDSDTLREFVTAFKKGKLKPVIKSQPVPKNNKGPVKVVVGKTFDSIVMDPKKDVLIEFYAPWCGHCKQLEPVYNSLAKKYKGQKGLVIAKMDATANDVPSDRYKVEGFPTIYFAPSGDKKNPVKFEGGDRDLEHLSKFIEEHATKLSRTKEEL
UniProt P10412, whole entry: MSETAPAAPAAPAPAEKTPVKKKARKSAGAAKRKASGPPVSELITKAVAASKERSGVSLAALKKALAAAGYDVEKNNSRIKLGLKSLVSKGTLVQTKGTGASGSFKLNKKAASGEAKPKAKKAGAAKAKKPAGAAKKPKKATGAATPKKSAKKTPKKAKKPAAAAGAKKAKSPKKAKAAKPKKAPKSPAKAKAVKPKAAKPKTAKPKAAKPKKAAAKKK
UniProt P11310: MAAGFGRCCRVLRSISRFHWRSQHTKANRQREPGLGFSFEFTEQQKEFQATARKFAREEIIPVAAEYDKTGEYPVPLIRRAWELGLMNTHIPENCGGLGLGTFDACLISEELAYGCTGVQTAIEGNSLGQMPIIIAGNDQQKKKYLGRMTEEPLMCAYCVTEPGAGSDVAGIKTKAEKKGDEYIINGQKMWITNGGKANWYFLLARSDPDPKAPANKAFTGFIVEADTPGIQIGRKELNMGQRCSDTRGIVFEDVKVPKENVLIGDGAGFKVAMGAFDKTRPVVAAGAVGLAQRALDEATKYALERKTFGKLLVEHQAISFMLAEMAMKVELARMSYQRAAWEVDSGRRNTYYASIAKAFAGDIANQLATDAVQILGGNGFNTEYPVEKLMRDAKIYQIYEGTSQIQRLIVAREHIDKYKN
UniProt P10809, whole entry: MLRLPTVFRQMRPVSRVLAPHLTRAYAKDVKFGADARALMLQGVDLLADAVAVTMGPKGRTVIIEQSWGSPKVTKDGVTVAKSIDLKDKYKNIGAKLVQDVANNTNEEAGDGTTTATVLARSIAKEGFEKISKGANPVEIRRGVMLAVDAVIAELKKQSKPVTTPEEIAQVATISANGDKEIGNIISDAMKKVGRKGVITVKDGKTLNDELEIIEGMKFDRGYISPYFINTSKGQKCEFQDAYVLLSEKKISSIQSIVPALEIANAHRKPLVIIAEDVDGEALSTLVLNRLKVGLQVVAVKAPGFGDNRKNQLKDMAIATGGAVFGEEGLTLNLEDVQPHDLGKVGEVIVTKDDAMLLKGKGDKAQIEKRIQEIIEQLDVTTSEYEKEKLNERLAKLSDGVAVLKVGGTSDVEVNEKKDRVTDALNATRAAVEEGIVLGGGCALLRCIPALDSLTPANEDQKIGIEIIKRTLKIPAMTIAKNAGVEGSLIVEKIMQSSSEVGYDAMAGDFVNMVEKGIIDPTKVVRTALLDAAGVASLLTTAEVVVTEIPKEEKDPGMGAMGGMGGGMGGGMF
UniProt P13051, whole entry: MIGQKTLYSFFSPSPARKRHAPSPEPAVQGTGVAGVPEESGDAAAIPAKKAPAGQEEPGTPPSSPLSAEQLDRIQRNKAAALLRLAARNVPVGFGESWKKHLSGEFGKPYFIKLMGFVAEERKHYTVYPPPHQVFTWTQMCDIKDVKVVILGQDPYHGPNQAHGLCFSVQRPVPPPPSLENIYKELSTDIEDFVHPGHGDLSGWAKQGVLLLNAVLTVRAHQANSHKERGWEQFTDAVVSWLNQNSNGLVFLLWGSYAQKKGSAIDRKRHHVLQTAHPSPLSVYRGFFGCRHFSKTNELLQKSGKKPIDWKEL

These results are taken from the supplement of paper PMC6411743.

Compound in the assay: Nc1nc2c(ncn2[C@@H]2O[C@H](COP(=O)(O)OP(=O)(O)OP(=O)(O)O)[C@@H](O)[C@H]2O)c(=O)[nH]1 [guanosine triphosphate]
Put plainly: NP40-soluble protein abundance relative to vehicle (solubility fold change) (ratio); higher = more soluble protein in presence of GTP. The method, then: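 Solubility proteome profiling in Jurkat crude lysate. Lysate was treated with Mg-GTP (0.1-10 mM) for 10 min at room temperature and 3 min at 37 °C, then solubilised with 0.8% NP40 and benzonase, followed by ultracentrifugation. Proteins were quantified by TMT10 LC-MS/MS; the value is the NP40-soluble abundance relative to the NP40-processed vehicle, from 3 independent experiments.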

Consider PDIA4 (UniProt P13667), for which the NP40-soluble protein abundance (concentration: 0.1mM) was 0.908 ± 0.074; the NP40-soluble protein abundance (concentration: 0.5mM) was 0.939 ± 0.065; the NP40-soluble protein abundance (concentration: 1mM) was 0.905 ± 0.069; the NP40-soluble protein abundance (concentration: 2mM) worked out at 0.876 ± 0.08; the NP40-soluble protein abundance (concentration: 4mM) stood at 0.846 ± 0.079; the NP40-soluble protein abundance (concentration: 6mM) worked out at 0.885 ± 0.069. The NP40-soluble protein abundance (concentration: 8mM) was 0.864 ± 0.073 and the NP40-soluble protein abundance (concentration: 10mM) amounted to 0.867 ± 0.081.
Consider HIST1H1E (UniProt P10412), for which the NP40-soluble protein abundance was found to be 1.02 ± 0.12 (concentration: 0.1mM); 1.05 ± 0.1 (concentration: 0.5mM); 1.13 ± 0.15 (concentration: 1mM); 1.24 ± 0.11 (concentration: 2mM); 1.26 ± 0.055 (concentration: 4mM); 1.38 ± 0.064 (concentration: 6mM). In addition, the NP40-soluble protein abundance is, setting by setting: (concentration: 8mM) 1.28 ± 0.18; (concentration: 10mM) 2.05 ± 0.41.
Turning to UniProt P11310 and related entries, the NP40-soluble protein abundance is, setting by setting: (concentration: 0.1mM) 0.965 ± 0.035; (concentration: 0.5mM) 0.998 ± 0.032; (concentration: 1mM) 0.924 ± 0.035; (concentration: 2mM) 0.915 ± 0.015; (concentration: 4mM) 0.903 ± 0.032; (concentration: 6mM) 0.928 ± 0.015. Besides, the NP40-soluble protein abundance was 0.906 ± 0.06 (concentration: 8mM) and 0.881 ± 0.034 (concentration: 10mM).
In the case of HSPD1 (UniProt P10809), the NP40-soluble protein abundance is, setting by setting: (concentration: 0.1mM) 0.944 ± 0.044; (concentration: 0.5mM) 0.952 ± 0.047; (concentration: 1mM) 0.971 ± 0.047; (concentration: 2mM) 0.914 ± 0.073; (concentration: 4mM) 0.908 ± 0.064; (concentration: 6mM) 0.923 ± 0.062. Also, the NP40-soluble protein abundance (concentration: 8mM) is 0.93 ± 0.03 and the NP40-soluble protein abundance (concentration: 10mM) came to 0.925 ± 0.055.
Regarding UniProt P13051 and related entries, the NP40-soluble protein abundance was 0.9724 ± 0.0086 (concentration: 0.1mM); 0.946 ± 0.019 (concentration: 0.5mM); 0.944 ± 0.073 (concentration: 1mM); 0.91 ± 0.062 (concentration: 2mM); 0.886 ± 0.075 (concentration: 4mM); 0.892 ± 0.07 (concentration: 6mM). For the same target, the NP40-soluble protein abundance was 0.893 ± 0.036 (concentration: 8mM) and 0.863 ± 0.1 (concentration: 10mM).
